These results are taken from PubChem BioAssay AID445 (National Center for Advancing Translational Sciences (NCATS), 2006).

SMILES strings stand for the structures. This is one part of the list. The main result of the screen is listed elsewhere. These columns were measured beside it and carry no call. Most of these compounds were active or inconclusive in the main read-out, so they are no random draw. Potencies come from curve fits of mixed quality, noted in brackets.

This experiment can be described thus: IkB Signaling. To be noted: ABC-DLBCL IkBa-CBG/CBR dual luciferase ratio (green luciferase fused to IkBa over red control in OCI-Ly3 lymphoma cells), 4 h. In outline:
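Curves were fitted separately to fusion (green), unfused (red) and ratio luminescence, then classed by r2, magnitude and activity. Cells: OCI-Ly3, 4 h compound plus doxycycline at 37C; 10 uM MG-132 defined full response.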

The mark [1] stands for this setting: measured here: control luc red channel unless noted.

For the compound `CC(C)Cn1c(N)c(C(=O)NCc2cccs2)c2nc3ccccc3nc21`, under setting [1], the half-maximal activity concentration (AC50) is 7.94 µM [falling, partial curve].

In the case of `COc1ccc(-c2cn3c(C)c(C(=O)Nc4cccc(NC(C)=O)c4)sc3n2)cc1`, the AC50 under setting [1] was 5.01 µM [falling, partial curve].

For the compound `COc1cc(C)nc(NCc2ccccc2)n1`, under setting [1], the AC50 is 12.6 µM [rising, partial curve].

In the case of `COc1cccc(Cc2nc3ccccc3nc2SCC(=O)Nc2cc(OC)ccc2OC)c1`, the half-maximal activity concentration (AC50) under setting [1] was 3.16 µM [falling, full curve].

As for `COc1ccc(-c2noc(-c3ccccc3F)n2)cc1`, under setting [1], the AC50 was 12.6 µM [falling, partial curve].

Take `CCOCCn1ccc2c(OCC(=O)Nc3cccc(F)c3)cccc2c1=O`: the AC50 under setting [1] was 20 µM [falling, single point].

In the case of `CCOc1cc(-c2ccc(OC(=O)c3ccccc3)c(OC)c2)cc(=O)c2c(C)oc(C)c12`, the AC50 under setting [1] is 20 µM [falling, single point].

In the case of `Cc1ccc(C2c3c(oc4ccccc4c3=O)C(=O)N2c2nnc(C)s2)cc1` (stereo not given), the half-maximal activity concentration (AC50) under setting [1] was 39.8 µM [falling, partial curve, poor fit].

For the compound `COc1ccc(C)cc1Nc1ncnc2c1c(-c1ccccc1)cn2-c1ccc(C)cc1`, the half-maximal activity concentration (AC50) under setting [1] is 12.6 µM [falling, partial curve].

For the compound `O=c1c2sc3ccccc3c2n(Cc2ccccc2)c(=O)n1CCc1ccccc1`, under setting [1], the concentration at half-maximal activity (AC50) is 12.6 µM [falling, partial curve].

Consider `COc1ccc(S(=O)(=O)N2CCC(C(=O)Nc3cc(C(F)(F)F)ccc3Cl)CC2)cc1`, for which, under setting [1], the concentration at half-maximal activity (AC50) was 7.94 µM [falling, full curve, poor fit].

On to `Cc1cc(C(=O)CSc2nnnn2-c2ccc(O)cc2)c(C)n1Cc1ccc2c(c1)OCO2`, for which the half-maximal activity concentration (AC50) under setting [1] is 3.16 µM [falling, full curve].

As to `CCc1nc2scc(-c3ccccc3)c2c(=O)n1N`, the AC50 under setting [1] was 0.794 µM [rising, full curve, poor fit].

`COc1ccc(OC)c2sc(N3CCN(C(=O)C4COc5ccccc5O4)CC3)nc12` (stereo not given): the AC50 under setting [1] was 39.8 µM [falling, single point].

Turning to `CC(C)c1ccc(NC(=O)CCS(=O)(=O)c2ccc3c(c2)CC(=O)N3C)cc1`, under setting [1], the concentration at half-maximal activity (AC50) was 15.8 µM [falling, partial curve].

As for `CCCCCn1cc2c(c1-c1ccccc1Br)c(=O)n(C)c(=O)n2C`, the AC50 under setting [1] is 15.8 µM [falling, partial curve].

`COc1ccc(C(c2nnnn2CC2CCCO2)N2CCN(c3cccc(C)c3C)CC2)cc1` (stereo not given): the AC50 under setting [1] is 12.6 µM [falling, partial curve].

For `Cc1ccc2occ(CC(=O)Nc3ccc(S(=O)(=O)N4CCC(C)CC4)cc3)c2c1`, the half-maximal activity concentration (AC50) under setting [1] is 12.6 µM [falling, partial curve].

On to `CCOc1ccc2ncc3c(-c4cccc(OC)c4)nn(-c4ccccc4)c3c2c1`, for which the AC50 under setting [1] is 7.94 µM [falling, full curve].

`COc1ccccc1CNC(=O)CSc1nnc(C)c2c(C)n(-c3ccccc3)nc12`: the AC50 under setting [1] was 10 µM [falling, partial curve].

On to `Cc1ccccc1OCCCCn1nnc2sc3c(c2c1=O)CCC(C)C3` (stereo not given), for which, under setting [1], the concentration at half-maximal activity (AC50) is 0.398 µM [falling, partial curve].

As to `Cc1nc2sccn2c(=O)c1S(=O)(=O)Nc1cc(C(F)(F)F)ccc1Cl`, the half-maximal activity concentration (AC50) under setting [1] is 25.1 µM [falling, single point].

Consider `COc1ccccc1NC=C1C(=O)OC(C)(C)OC1=O`, for which the concentration at half-maximal activity (AC50) under setting [1] was 31.6 µM [rising, partial curve].

For `CN1C(=O)C2(SCC(=O)N2c2ccc(Cl)cc2)c2ccccc21` (stereo not given), the AC50 under setting [1] was 0.0316 µM [falling, full curve].

`CC(=O)N1CCCc2cc(S(=O)(=O)N3CCCC(C(=O)NCc4ccc(C)cc4)C3)ccc21` (stereo not given): the half-maximal activity concentration (AC50) under setting [1] was 15.8 µM [falling, partial curve].

As for `CCCOc1ccc(-c2cc(C(F)(F)F)c(C#N)c(SCCC(=O)O)n2)cc1`, the concentration at half-maximal activity (AC50) under setting [1] was 15.8 µM [falling, partial curve].

In the case of `CCCN(CCC)C(=O)Cn1c(=O)n(CCCCCC(=O)NCc2ccccc2Cl)c(=O)c2sccc21`, the AC50 under setting [1] is 0.0316 µM [falling, full curve, poor fit].

As to `COc1ccc(C2CC3(CC(C)(C)NC(=O)N3)Oc3cc(O)ccc32)cc1` (stereo not given), the half-maximal activity concentration (AC50) under setting [1] is 15.8 µM [falling, partial curve].

For the compound `CS(=O)(=O)N1CCc2cc(C(=O)Nc3ccc(C(F)(F)F)cc3)ccc21`, the AC50 under setting [1] was 20 µM [falling, partial curve].

Take `CC(=O)c1ccc(NC(=O)N2CCN(c3cccc(Cl)c3)CC2)cc1`: the AC50 under setting [1] was 12.6 µM [falling, partial curve].

On to `CN(C)c1ccc(CNC(=O)C2CCN(Cc3cc4ccccc4n3Cc3ccccc3)CC2)cc1`, for which the concentration at half-maximal activity (AC50) under setting [1] was 1.26 µM [rising, single point].

As for `O=C1C(=O)N(Cc2ccc(Cl)c(Cl)c2)c2ccccc21`, under setting [1], the concentration at half-maximal activity (AC50) was 39.8 µM [falling, single point].

Turning to `CCOC(=O)c1ccc(NCc2nc3ccccc3[nH]2)cc1`, the AC50 under setting [1] is 25.1 µM [falling, partial curve].

Turning to `Cc1ccc(-c2noc(CSc3nnc(C)n3-c3ccc(C)c(C)c3)n2)cc1`, the half-maximal activity concentration (AC50) under setting [1] was 25.1 µM [falling, partial curve].

Regarding `Cc1cc(NC(=O)c2ccccc2)sc1C`, the concentration at half-maximal activity (AC50) under setting [1] was 15.8 µM [falling, partial curve].

As to `CCOc1ccc(NC(=O)c2cc(S(=O)(=O)N3CCN(c4ccccc4F)CC3)ccc2F)cc1`, the concentration at half-maximal activity (AC50) under setting [1] was 6.31 µM [falling, full curve].

For `COc1ccc(OCC(=O)Nc2cccc(OC)c2)cc1`, the AC50 under setting [1] was 20 µM [falling, single point].

`CCCCN(C)C(=O)CSc1nc2ccccc2nc1Cc1ccc(C)cc1`: the concentration at half-maximal activity (AC50) under setting [1] was 31.6 µM [falling, partial curve].

As for `Cc1ccc2oc(C(=O)N(Cc3sccc3C)C3CCS(=O)(=O)C3)c(C)c2c1` (stereo not given), the half-maximal activity concentration (AC50) under setting [1] was 31.6 µM [falling, single point].

In the case of `CCOc1ccc(Nc2c(S(=O)(=O)c3ccc(C)cc3)cnc3ccc(F)cc23)cc1`, the half-maximal activity concentration (AC50) under setting [1] is 12.6 µM [falling, single point].

Turning to `COc1ccccc1CNC(=O)C(=O)NCC(c1cccs1)S(=O)(=O)c1cccs1` (stereo not given), the AC50 under setting [1] was 15.8 µM [rising, single point].

`COc1ccccc1C(=O)Nc1nnc2n1CCS2`: the AC50 under setting [1] was 1 µM [rising, full curve, poor fit].

As to `COc1cccc2c1cc1c(=O)n(CC(=O)NCc3ccco3)nc(C)n12`, the concentration at half-maximal activity (AC50) under setting [1] was 10 µM [rising, partial curve, poor fit].

In the case of `Cc1c(Cl)cccc1NC(=O)CSc1nc(=O)n(Cc2ccco2)c2c1CCC2`, the AC50 under setting [1] was 39.8 µM [falling, single point].

Turning to `Cc1ccc(CCNC(=O)CN(c2ccc(C)cc2)S(=O)(=O)N(C)C)cc1`, under setting [1], the concentration at half-maximal activity (AC50) is 39.8 µM [falling, single point].

Consider `CC1CCN(S(=O)(=O)c2ccc3c(c2)N(CC(=O)NCC(C)c2ccccc2)C(=O)CO3)CC1` (stereo not given), for which the AC50 under setting [1] is 20 µM [falling, partial curve].

With `CCN1CCN(c2ncnc3c2cnn3-c2cccc(C)c2)CC1`, the AC50 under setting [1] was 31.6 µM [falling, single point].

For the compound `O=S1(=O)c2cccc3cccc(c23)N1Cc1nnc(-c2ccccc2Br)o1`, under setting [1], the half-maximal activity concentration (AC50) was 12.6 µM [falling, partial curve].

For the compound `O=C(NC1CCCCC1)c1ccc2c(c1)N(Cc1ccccc1Cl)C(=O)c1ccccc1S2`, the concentration at half-maximal activity (AC50) under setting [1] was 1 µM [rising, full curve].

On to `CCOc1ccccc1NC(=O)C1CCCN1S(=O)(=O)c1ccc2nc(-c3ccccc3)[nH]c2c1` (stereo not given), for which the AC50 under setting [1] was 5.01 µM [falling, partial curve].

Consider `CCOc1ccc(S(=O)(=O)Nc2ccc3oc4c(c3c2)CC(C)CC4)cc1` (stereo not given), for which the concentration at half-maximal activity (AC50) under setting [1] is 31.6 µM [falling, partial curve].

For the compound `O=C(Nc1ccc2c(c1)OCO2)c1ccc(Br)c(S(=O)(=O)N2CCCC2)c1`, the half-maximal activity concentration (AC50) (measured here: IkB-luc green channel) is 15.8 µM [falling, partial curve] and the AC50 (measured here: control luc red channel) is 10 µM [falling, partial curve].

With `Cc1nnc(SCc2nc3ccccc3s2)n1-c1ccccc1`, under setting [1], the AC50 was 1.58 µM [falling, full curve, poor fit].

Regarding `CC(C)CN(CC(C)C)CC(O)Cn1cc(/C=C/C(=O)c2ccccc2)c2ccccc21` (stereo not given), the AC50 under setting [1] was 6.31 µM [falling, partial curve].

`COc1ccc(C)c2sc(NC(=O)c3ccc(S(=O)(=O)N4CCCC4)cc3)nc12`: the half-maximal activity concentration (AC50) under setting [1] was 0.398 µM [falling, full curve, poor fit].

On to `COc1ccc(C(=O)NCc2ccc3c(c2)CCN3C(=O)c2ccc(F)cc2)cc1`, for which, under setting [1], the AC50 is 12.6 µM [falling, partial curve].

For `COc1ccc(Nc2ncnc3c2cnn3Cc2ccccc2)cc1`, under setting [1], the AC50 was 39.8 µM [falling, single point].

Regarding `CC1=C(C(=O)OCc2ccc(C)cc2)C(c2ccccc2C(F)(F)F)CC(=O)N1` (stereo not given), the half-maximal activity concentration (AC50) under setting [1] was 15.8 µM [falling, partial curve].

Turning to `O=C(c1cccc(COCC(F)(F)C(F)F)c1)N1CCN(c2ccccc2)CC1`, the concentration at half-maximal activity (AC50) under setting [1] was 15.8 µM [falling, partial curve].

In the case of `Cc1ccc(OCCSc2nc3ccccc3n2CC(=O)N2CCOCC2)cc1`, the half-maximal activity concentration (AC50) under setting [1] is 7.94 µM [falling, partial curve].

In the case of `COC(=O)c1c(NC(=O)c2ccc(Cl)c(Cl)c2)sc2c1CCCC2`, the half-maximal activity concentration (AC50) under setting [1] is 0.501 µM [falling, full curve].

As for `CCOc1ccc(NC(=O)CSc2nnc3scc(-c4ccccc4)n23)cc1`, under setting [1], the AC50 is 39.8 µM [falling, single point].

`Nc1[nH]nc2nc3ccccc3nc12`: under setting [1], the AC50 was 20 µM [falling, partial curve, poor fit].

Take `Cc1ccc(-n2ncc(C(=O)Nc3ccc4c(c3)OCCO4)c2C2CCN(C(=O)OC(C)(C)C)CC2)cc1C`: the AC50 under setting [1] was 15.8 µM [falling, partial curve].

For orientation: AC50 means the concentration at which the activity in the assay is half-maximal.
